In patent US10563263B2, “Genetic polymorphisms associated with statin response and cardiovascular diseases, methods of detection and uses thereof” (CELERA CORPORATION, priority 2010, dated 2020):
The source gives many values for each of these; only a part stands here.

Test system: CHD
Test: Meta-analysis of CARE and WOSCOPS combined, synergy index, CHD endpoint
Format: in vivo, human
Source text: Tables 4-5 provide meta-analyses of CARE and WOSCOPS combined (2nd section of each table) for two endpoints (CHD and CVD) and three genetic models (dominant, recessive, and additive), as well as logistic regression analyses of CARE (3rd section of each table) and WOSCOPS (4th section of each table) individually.
Tables 12 and 17 provide results of meta-analysis of the CARE and WOSCOPS sample sets combined by direct genotyping and by imputing genotypes.
“P” indicates the p-value, and “P(R)” (or “P.R.”) indicates the p-value random effect. Both of these are p-values corresponding to a statistical test of whether the combined synergy index is equal to one but use different assumptions to derive the p-value. “P” is calculated using a fixed effects model, and “P(R)” is calculated using a random effects model.
“OR” indicates the odds ratio (synergy index) calculated from a fixed effects model, and “OR(R)” (or “OR.R.”) indicates the odds ratio (synergy index) calculated from a random effects model.

CC[C@H](C)C(=O)O[C@H]1C[C@H](O)C=C2C=C[C@H](C)[C@H](CC[C@@H](O)C[C@@H](O)CC(=O)O)[C@H]21 [Pravastatin, pravastatin]
Meta-analysis OR (Marker rs2574, A1 C (non-ref), A2 G (ref)): 1.53
Meta-analysis OR (Marker rs4773, A1 A (non-ref), A2 G (ref)): 0.69
Meta-analysis OR (Marker rs7508, A1 G (non-ref), A2 A (ref)): 1.48
Meta-analysis OR (Marker rs9857, A1 G (non-ref), A2 A (ref)): 0.74
Meta-analysis OR (Marker rs9960, A1 A (non-ref), A2 G (ref)): 1.47
Meta-analysis OR (Marker rs198460, A1 G (non-ref), A2 A (ref)): 1.56
Meta-analysis OR (Marker rs198464, A1 G (non-ref), A2 A (ref)): 1.57
Meta-analysis OR (Marker rs198476, A1 G (non-ref), A2 A (ref)): 1.67
Meta-analysis OR (Marker rs208025, A1 A (non-ref), A2 G (ref)): 1.41
Meta-analysis OR (Marker rs238250, A1 A (non-ref), A2 C (ref)): 1.46
Meta-analysis OR (Marker rs251817, A1 A (non-ref), A2 G (ref)): 2.19
Meta-analysis OR (Marker rs264122, A1 A (non-ref), A2 G (ref)): 0.62
Meta-analysis OR (Marker rs271046, A1 A (non-ref), A2 G (ref)): 0.57
Meta-analysis OR (Marker rs475420, A1 G (non-ref), A2 A (ref)): 1.63
Meta-analysis OR (Marker rs494111, A1 G (non-ref), A2 A (ref)): 0.57
Meta-analysis OR (Marker rs498657, A1 G (non-ref), A2 A (ref)): 1.47
Meta-analysis OR (Marker rs581401, A1 A (non-ref), A2 G (ref)): 0.59
Meta-analysis OR (Marker rs603940, A1 G (non-ref), A2 A (ref)): 0.59
Meta-analysis OR (Marker rs619825, A1 G (non-ref), A2 A (ref)): 0.56
Meta-analysis OR (Marker rs623400, A1 A (non-ref), A2 G (ref)): 0.70
Meta-analysis OR (Marker rs623584, A1 A (non-ref), A2 G (ref)): 0.59
Meta-analysis OR (Marker rs646749, A1 A (non-ref), A2 G (ref)): 0.56
Meta-analysis OR (Marker rs675163, A1 C (non-ref), A2 A (ref)): 0.67
Meta-analysis OR (Marker rs694780, A1 G (non-ref), A2 A (ref)): 0.55
Meta-analysis OR (Marker rs892162, A1 G (non-ref), A2 A (ref)): 0.60
Meta-analysis OR (Marker rs974950, A1 A (non-ref), A2 G (ref)): 0.67
Meta-analysis OR (Marker rs996022, A1 C (non-ref), A2 A (ref)): 0.57
Meta-analysis OR (Marker rs1003322, A1 A (non-ref), A2 C (ref)): 1.51
Meta-analysis OR (Marker rs1009748, A1 A (non-ref), A2 G (ref)): 1.37
Meta-analysis OR (Marker rs1015199, A1 G (non-ref), A2 A (ref)): 1.72
Meta-analysis OR (Marker rs1045916, A1 G (non-ref), A2 A (ref)): 0.74
Meta-analysis OR (Marker rs1068705, A1 G (non-ref), A2 A (ref)): 0.66
Meta-analysis OR (Marker rs1129570, A1 C (non-ref), A2 A (ref)): 1.42
Meta-analysis OR (Marker rs1136046, A1 A (non-ref), A2 G (ref)): 1.48
Meta-analysis OR (Marker rs1155875, A1 G (non-ref), A2 A (ref)): 0.77
Meta-analysis OR (Marker rs1190706, A1 A (non-ref), A2 C (ref)): 0.67
Meta-analysis OR (Marker rs1266489, A1 A (non-ref), A2 G (ref)): 0.67
Meta-analysis OR (Marker rs1336400, A1 A (non-ref), A2 G (ref)): 1.60
Meta-analysis OR (Marker rs1344081, A1 G (non-ref), A2 A (ref)): 1.45
Meta-analysis OR (Marker rs1352236, A1 A (non-ref), A2 G (ref)): 0.44
Meta-analysis OR (Marker rs1439269, A1 A (non-ref), A2 G (ref)): 1.39
Meta-analysis OR (Marker rs1450092, A1 G (non-ref), A2 A (ref)): 0.69
Meta-analysis OR (Marker rs1505469, A1 G (non-ref), A2 A (ref)): 1.50
Meta-analysis OR (Marker rs1524962, A1 A (non-ref), A2 G (ref)): 0.72
Meta-analysis OR (Marker rs1531842, A1 A (non-ref), A2 C (ref)): 0.68
Meta-analysis OR (Marker rs1566221, A1 G (non-ref), A2 A (ref)): 0.56
Meta-analysis OR (Marker rs1727746, A1 A (non-ref), A2 G (ref)): 1.47
Meta-analysis OR (Marker rs1798093, A1 G (non-ref), A2 A (ref)): 1.75
Meta-analysis OR (Marker rs1942876, A1 A (non-ref), A2 G (ref)): 0.56
Meta-analysis OR (Marker rs2011318, A1 A (non-ref), A2 G (ref)): 0.64
Meta-analysis OR (Marker rs2060022, A1 G (non-ref), A2 A (ref)): 0.64
Meta-analysis OR (Marker rs2108425, A1 A (non-ref), A2 G (ref)): 0.63
Meta-analysis OR (Marker rs2110564, A1 A (non-ref), A2 C (ref)): 0.66
Meta-analysis OR (Marker rs2113334, A1 A (non-ref), A2 G (ref)): 0.41
Meta-analysis OR (Marker rs2327412, A1 G (non-ref), A2 A (ref)): 1.37
Meta-analysis OR (Marker rs2505039, A1 A (non-ref), A2 G (ref)): 0.76
Meta-analysis OR (Marker rs2588350, A1 A (non-ref), A2 G (ref)): 0.72
Meta-analysis OR (Marker rs2616548, A1 G (non-ref), A2 A (ref)): 1.57
Meta-analysis OR (Marker rs2616552, A1 A (non-ref), A2 C (ref)): 1.42
Meta-analysis OR (Marker rs2648694, A1 A (non-ref), A2 G (ref)): 1.98
Meta-analysis OR (Marker rs2655222, A1 A (non-ref), A2 G (ref)): 0.29
Meta-analysis OR (Marker rs2657940, A1 A (non-ref), A2 G (ref)): 1.40
Meta-analysis OR (Marker rs2748901, A1 G (non-ref), A2 A (ref)): 1.58
Meta-analysis OR (Marker rs2993156, A1 A (non-ref), A2 G (ref)): 0.66
Meta-analysis OR (Marker rs3763978, A1 G (non-ref), A2 C (ref)): 0.75
Meta-analysis OR (Marker rs3800202, A1 A (non-ref), A2 G (ref)): 0.48
Meta-analysis OR (Marker rs4038018, A1 G (non-ref), A2 A (ref)): 0.65
Meta-analysis OR (Marker rs4240808, A1 A (non-ref), A2 G (ref)): 0.61
Meta-analysis OR (Marker rs4242281, A1 A (non-ref), A2 C (ref)): 1.93
Meta-analysis OR (Marker rs4251580, A1 A (non-ref), A2 G (ref)): 0.69
Meta-analysis OR (Marker rs4420312, A1 A (non-ref), A2 G (ref)): 0.66
Meta-analysis OR (Marker rs4472926, A1 G (non-ref), A2 A (ref)): 0.66
Meta-analysis OR (Marker rs4660234, A1 A (non-ref), A2 G (ref)): 1.56
Meta-analysis OR (Marker rs4686740, A1 A (non-ref), A2 G (ref)): 1.55
Meta-analysis OR (Marker rs4787415, A1 A (non-ref), A2 G (ref)): 0.60
Meta-analysis OR (Marker rs4807536, A1 A (non-ref), A2 G (ref)): 2.00
Meta-analysis OR (Marker rs4836745, A1 A (non-ref), A2 G (ref)): 0.68
Meta-analysis OR (Marker rs4870109, A1 A (non-ref), A2 G (ref)): 1.86
Meta-analysis OR (Marker rs6040760, A1 G (non-ref), A2 A (ref)): 1.47
Meta-analysis OR (Marker rs6427807, A1 C (non-ref), A2 A (ref)): 0.68
Meta-analysis OR (Marker rs6435378, A1 A (non-ref), A2 G (ref)): 0.67
Meta-analysis OR (Marker rs6474228, A1 A (non-ref), A2 G (ref)): 1.54
Meta-analysis OR (Marker rs6539231, A1 A (non-ref), A2 G (ref)): 0.65
Meta-analysis OR (Marker rs6563805, A1 A (non-ref), A2 G (ref)): 0.65
Meta-analysis OR (Marker rs6585412, A1 A (non-ref), A2 G (ref)): 1.53
Meta-analysis OR (Marker rs6685920, A1 A (non-ref), A2 G (ref)): 1.60
Meta-analysis OR (Marker rs6742894, A1 G (non-ref), A2 A (ref)): 1.53
Meta-analysis OR (Marker rs6746182, A1 A (non-ref), A2 G (ref)): 1.49
Meta-analysis OR (Marker rs6848512, A1 G (non-ref), A2 A (ref)): 0.66
Meta-analysis OR (Marker rs6998016, A1 A (non-ref), A2 G (ref)): 3.99
Meta-analysis OR (Marker rs7018577, A1 A (non-ref), A2 G (ref)): 1.50
Meta-analysis OR (Marker rs7067780, A1 A (non-ref), A2 G (ref)): 1.53
Meta-analysis OR (Marker rs7070244, A1 G (non-ref), A2 A (ref)): 1.45
Meta-analysis OR (Marker rs7078016, A1 C (non-ref), A2 A (ref)): 1.54
Meta-analysis OR (Marker rs7222186, A1 A (non-ref), A2 G (ref)): 0.64
Meta-analysis OR (Marker rs7276749, A1 A (non-ref), A2 C (ref)): 0.46
Meta-analysis OR (Marker rs7305949, A1 G (non-ref), A2 A (ref)): 2.22
